Measured values from US9888688B2, “Tetrazolinone compounds and applications thereof” (Sumitomo Chemical Company, Limited, priority 2013, dated 2018).
Like-named read-outs stand apart in the source and are kept apart here. Some entries share one result that the patent states for a list of compounds.

Test system: cucumber powdery mildew fungus (Sphaerotheca fuliginea, a QoI-resistant strain, cytochrome b position 143 glycine to alanine)
Assay type: in vivo
Settings: cucumber SAGAMI HANJIRO, 8 days

SMILES | area of lesion spots relative to that on an untreated plant (200 ppm foliar spray) [%] | area of lesion spots relative to that on an untreated plant (500 ppm foliar spray) [%]
Cc1cc(-c2ncccc2F)ccc1OCc1c(C)cccc1-n1nnn(C)c1=O [Present Compound 17] | ≤ 30 | ≤ 30
Cc1cc(-c2cccc(C#N)n2)ccc1OCc1c(C)cccc1-n1nnn(C)c1=O [Present Compound 114, 1-{3-methyl-2-[2-methyl-4-(6-cyanopyridin-2-yl)-phenoxymethyl]-phenyl}-4-methyl-1,4-dihydrotetrazol-5-one] | ≤ 30 | ≤ 30
Cc1ccnc(-c2ccc(OCc3ccccc3-n3nnn(C)c3=O)c(C(F)(F)F)c2)n1 [Present Compound 137] | ≤ 30 | ≤ 30
Cc1ccc(Cl)c(-c2ccc(OCc3c(C)cccc3-n3nnn(C)c3=O)c(C)c2)n1 [Present Compound 145] | ≤ 30 | ≤ 30
CCc1cccc(-c2ccc(OCc3ccccc3-n3nnn(C)c3=O)c(C(F)(F)F)c2)n1 [Present Compound 130] | ≤ 30 | ≤ 30
Cc1cc(-c2ncccc2Cl)ccc1OCc1c(C)cccc1-n1nnn(C)c1=O [Present Compound 23] | ≤ 30 | ≤ 30
CCc1cccc(-n2nnn(C)c2=O)c1COc1ccc(-c2ccc(C)cn2)cc1C [Present Compound 33] | ≤ 30 | ≤ 30
Cc1cccc(-c2cc(C)c(OCc3c(C)cccc3-n3nnn(C)c3=O)c(C)c2)n1 [Present Compound 60] | ≤ 30 | 
Cc1cc(-c2ccc(C(F)(F)F)cn2)c(C)cc1OCc1c(C)cccc1-n1nnn(C)c1=O [Present Compound 182] | ≤ 30 | ≤ 30
Cc1ccc(-c2ccc(OCc3c(Cl)cccc3-n3nnn(C)c3=O)c(C)c2)cn1 [Present Compound 74] | ≤ 30 | ≤ 30
Cc1cncc(-c2ccc(OCc3c(C)cccc3-n3nnn(C)c3=O)c(C)c2)c1 [Present Compound 112] | ≤ 30 | ≤ 30
Cc1cccc(-c2ccc(OCc3c(C)cccc3-n3nnn(C)c3=O)c(F)c2)n1 [Present Compound 58] | ≤ 30 | ≤ 30
CCc1ccnc(-c2ccc(OCc3c(CC)cccc3-n3nnn(C)c3=O)c(C)c2)n1 [Present Compound 142] | ≤ 30 | ≤ 30
Cc1cc(-c2ncccc2C)c(C)cc1OCc1c(C)cccc1-n1nnn(C)c1=O [Present Compound 167] | ≤ 30 | ≤ 30
Cc1ccnc(-c2ccc(OCc3c(Cl)cccc3-n3nnn(C)c3=O)c(C(F)(F)F)c2)n1 [Present Compound 134] |  | ≤ 30
Cc1cccc(-c2ccc(OCc3ccccc3-n3nnn(C)c3=O)c(C)c2)n1 [Present Compound 50] | ≤ 30 | ≤ 30
COc1cccc(-n2nnn(C)c2=O)c1COc1ccc(-c2cccc(Cl)n2)cc1C [Present Compound 38] | ≤ 30 | ≤ 30
Cc1cccc(-c2ccc(OCc3c(C)cccc3-n3nnn(C)c3=O)c(C#N)c2)n1 [Present Compound 156] | ≤ 30 | ≤ 30
Cc1cc(-c2cccc(C#N)n2)ccc1OCc1c(Cl)cccc1-n1nnn(C)c1=O [Present Compound 118] | ≤ 30 | ≤ 30
COc1cccnc1-c1cc(C)c(OCc2c(C)cccc2-n2nnn(C)c2=O)cc1C [Present Compound 160] | ≤ 30 | ≤ 30
CSc1cccc(-n2nnn(C)c2=O)c1COc1ccc(-c2nccc(C)n2)cc1C [Present Compound 97] | ≤ 30 | ≤ 30
CCc1cccc(-n2nnn(C)c2=O)c1COc1ccc(-c2cccnc2)cc1C [Present Compound 62] | ≤ 30 | 
CCOc1cccc(-n2nnn(C)c2=O)c1COc1ccc(-c2cc(Cl)ccn2)cc1C [Present Compound 16] | ≤ 30 | ≤ 30
COc1cccc(-n2nnn(C)c2=O)c1COc1ccc(-c2ccc(C)nc2)cc1C [Present Compound 73] | ≤ 30 | ≤ 30

SMILES | area of lesion spots relative to that on an untreated plant (200 ppm foliar spray) [%] | area of lesion spots relative to that on an untreated plant (500 ppm foliar spray) [%]
Cc1cc(-c2ccccn2)c(C)cc1OCc1c(C2CC2)cccc1-n1nnn(C)c1=O [Present Compound 222] | ≤ 30 | ≤ 30
Cc1cccc(-c2ccc(OCc3c(C)cccc3-n3nnn(C)c3=O)cc2C)n1 [Present Compound 56] | ≤ 30 | ≤ 30
Cc1cc(OCc2c(C)cccc2-n2nnn(C)c2=O)c(Cl)cc1-c1ccccn1 [Present Compound 190] | ≤ 30 | ≤ 30
CCc1cccc(-n2nnn(C)c2=O)c1COc1ccc(-c2nccc(C)n2)cc1C [Present Compound 93] | ≤ 30 | ≤ 30
Cc1ccc(-c2ccc(OCc3c(C4CC4)cccc3-n3nnn(C)c3=O)c(C)c2)cn1 [Present Compound 76] | ≤ 30 | ≤ 30
Cc1cc(-c2ccc(F)cn2)c(C)cc1OCc1c(C)cccc1-n1nnn(C)c1=O [Present Compound 173] | ≤ 30 | ≤ 30
Cc1cc(-c2cnccn2)c(C)cc1OCc1c(C)cccc1-n1nnn(C)c1=O [Present Compound 165] |  | ≤ 30
Cc1cc(-c2ccccn2)c(C)cc1OCc1c(Cl)cccc1-n1nnn(C)c1=O [Present Compound 177] | ≤ 30 | 
Cc1cc(-c2ncccn2)ccc1OCc1c(C)cccc1-n1nnn(C)c1=O [Present Compound 83] | ≤ 30 | ≤ 30
COc1cccc(-n2nnn(C)c2=O)c1COc1ccc(-c2cnccc2Cl)cc1C [Present Compound 70] | ≤ 30 | 
COc1cccc(-n2nnn(C)c2=O)c1COc1ccc(-c2cccc(C(F)(F)F)n2)cc1C [Present Compound 34] | ≤ 30 | ≤ 30
Cc1cc(-c2ncccc2C)ccc1OCc1c(C)cccc1-n1nnn(C)c1=O [Present Compound 12] | ≤ 30 | ≤ 30
COc1cc(-c2cccc(C)n2)ccc1OCc1c(C)cccc1-n1nnn(C)c1=O [Present Compound 155] | ≤ 30 | ≤ 30
Cc1cc(-c2ncccn2)ccc1OCc1c(Cl)cccc1-n1nnn(C)c1=O [Present Compound 86] | ≤ 30 | ≤ 30
Cc1cc(-c2ccccn2)ccc1OCc1c(C2CC2)cccc1-n1nnn(C)c1=O [Present Compound 6] | ≤ 30 | ≤ 30
CCc1cccc(-n2nnn(C)c2=O)c1COc1ccc(-c2ncccc2Cl)cc1C [Present Compound 2] | ≤ 30 | ≤ 30
Cc1cc(-c2ncccc2F)ccc1OCc1ccccc1-n1nnn(C)c1=O [Present Compound 18] | ≤ 30 | ≤ 30
Cc1ccnc(-c2ccc(OCc3ccccc3-n3nnn(C)c3=O)c(C)c2)c1 [Present Compound 1, 1-{2-[2-methyl-4-(4-methylpyridin-2-yl)-phenoxymethyl]phenyl}-4-methyl-1,4-dihydrotetrazol-5-one] |  | ≤ 30
Cc1cc(-c2cccc(C#N)n2)ccc1OCc1ccccc1-n1nnn(C)c1=O [Present Compound 117] |  | ≤ 30
Cc1ccnc(-c2ccc(OCc3c(C4CC4)cccc3-n3nnn(C)c3=O)c(C)c2)c1 [Present Compound 22] | ≤ 30 | ≤ 30
CCc1cccc(-c2cc(C)c(OCc3c(C)cccc3-n3nnn(C)c3=O)cc2C)n1 [Present Compound 204] | ≤ 30 | ≤ 30
Cc1cc(-c2cccc(C(C)C)n2)ccc1OCc1c(C)cccc1-n1nnn(C)c1=O [Present Compound 149] | ≤ 30 | ≤ 30
CCc1cccc(-c2ccc(OCc3c(C)cccc3-n3nnn(C)c3=O)c(C(F)(F)F)c2)n1 [Present Compound 131] | ≤ 30 | ≤ 30
Cc1cc(-c2cccc(Cl)n2)c(C)cc1OCc1ccccc1-n1nnn(C)c1=O [Present Compound 175] | ≤ 30 | ≤ 30
